Measured values: patent publication US20150307616A1 (APEXIGEN, published 2015)

How the values were obtained:
monkey CD40 (monkey) [1] = assay: summary of Example 2
monkey CD40 (monkey) [2] = assay: direct ELISA on coated CD40 (1 µg/ml)
monkey CD40 (monkey) [3] = assay: direct ELISA, legend of FIGS. 11A and 11B
monkey CD40 (monkey) [4] = assay: direct ELISA by the text (1 ug/ml CD40 coated, goat anti-human IgG-HRP); the axis of the sheet is labelled MFI; one antibody concentration

binding (monkey CD40 (monkey) [1]): binds | binding (monkey CD40 (monkey) [2]): binds | binding (monkey CD40 (monkey) [3]): binds | binding (monkey CD40 (monkey) [4]): binds
B1: APX005 humanized anti-CD40 antibody (antibody, IgG1, V domains shown)
VH: QVQLVESGGGVVQPGRSLRLSCAASGFSFSSTYVCWVRQAPGKGLEWIACIYTGDGTNYSASWAKGRFTISKDSSKNTVYLQMNSLRAEDTAVYFCARPDITYGFAINFWGPGTLVTVSS
VL: DIQMTQSPSSLSASVGDRVTIKCQASQSISSRLAWYQQKPGKPPKLLIYRASTLASGVPSRFSGSGSGTDFTLTISSLQPEDVATYYCQCTGYGISWPIGGGTKVEIK
notes: also called humanized R-8

Results are given in words; binding and its absence hold for the method and conditions named. A result given as binding can be weak or reduced; the word gives no strength.
